From patent US9181218B2, “Compounds for improved stem cell differentiation into hepatocytes” (Hoffmann-La Roche Inc., priority 2013, dated 2015)
Some entries share one result that the patent states for a list of compounds.

These compounds were tested on Human iPSC-derived hepatocytes (iCell® Hepatocytes) (assay: Gene expression profiling of iCell Hepatocytes by microfluidic qRT-PCR). Settings: FIG. 2.
Assay type: cell-based
Experimental: Human iPSC-derived hepatocytes (iCell® Hepatocytes) were exposed to the compounds of formula I with the goal of identifying conditions that favor greater functionality that better models the adult organ. […] Gene expression changes were validated and confirmed in a secondary screen, and functional consequences were queried.
Fresh iCell® Hepatocytes (day 20-23) were plated and cultured according to iCell Hepatocytes Dissociation and Plating User's Guide at 60 k cells per well in 96 well BIO Collagen IV coated plates (BD Cat#354429) 4 Hours post plating Medium C was removed and replaced with a 1:50 Matrigel (Cat#354227) overlay in Medium D. We dosed the cells at 5 uM in Medium D and 1% DMSO 24 hours post plating. Day 3, media was removed and we dosed again at 5 uM. Day 4 we Harvested RNA.
Sample RNA was isolated using TaqMan® Gene Expression Cells-to-CT™ Kit (Life Technologies Cat#4387299) froze at −80 C at various time points post compound treatment. All samples were processed by microfluidic quantitative PCR using the Biomark Fluidigm 96.96 chips (BMK-M-96.96) and ABI Taqman probes. Normalization and model-based expression measurements were calculated using the Biogazelle qBASE and Genorm software. All sample data are the average of triplicates and normalized to 5 housekeeping genes for a relative gene expression value. Expression values are calculated by the fold change over vehicle control.
Top compound hits were chosen based on a compound's ability to alter the gene expression in a manner predicted to increase cellular maturity, for instance an increase of adult specific markers or a decrease in fetal specific markers. For the secondary confirmation screen compound hits were chosen for a dose response on a broader panel of genes. […] (FIG. 1). […] (FIG. 2). […] Upon treatment with the compound of Example 1, iCell Hepatocytes are able to be infected in multiple genotypes of HBV and generate robust numbers of infected hepatocytes based on IHC and ELISA.

SMILES | gene expression of a panel of maturation-associated genes
O=C(NCc1cccc(F)c1)c1cccc2nc(-c3c(NC[C@@H](O)c4ccccc4)cc[nH]c3=O)[nH]c12 [Example 1, 2-[4-((S)-2-hydroxy-2-phenyl-ethylamino)-2-oxo-1,2-dihydro-pyridin-3-yl]-3H-benzoimidazole-4-carboxylic acid 3-fluoro-benzylamide] | increased expression of genes spanning hepatocyte function
O=C(NCc1ccccc1)c1cccc2nc(-c3c(NC[C@@H](O)c4ccccc4)cc[nH]c3=O)[nH]c12 [Example 2, 2-[4-((S)-2-Hydroxy-2-phenyl-ethylamino)-2-oxo-1,2-dihydro-pyridin-3-yl]-3H-benzoimidazole-4-carboxylic acid benzylamide] | increased expression of genes spanning hepatocyte function
O=C(NCc1ccc(F)cc1)c1cccc2nc(-c3c(NC[C@@H](O)c4ccccc4)cc[nH]c3=O)[nH]c12 [Example 3, 2-[4-((S)-2-Hydroxy-2-phenyl-ethylamino)-2-oxo-1,2-dihydro-pyridin-3-yl]-3H-benzoimidazole-4-carboxylic acid 4-fluoro-benzylamide] | increased expression of genes spanning hepatocyte function
O=C(NCc1ccccc1)c1cccc2nc(-c3c(NCCc4cccc(Cl)c4)cc[nH]c3=O)[nH]c12 [Example 4, 2-{4-[2-(3-Chloro-phenyl)-ethylamino]-2-oxo-1,2-dihydro-pyridin-3-yl}-3H-benzoimidazole-4-carboxylic acid Benzylamide] | increased expression of genes spanning hepatocyte function
O=C(NCc1ccc(F)cc1)c1cccc2nc(-c3c(NCCc4cccc(Cl)c4)cc[nH]c3=O)[nH]c12 [Example 5, 2-{4-[2-(3-Chloro-phenyl)-ethylamino]-2-oxo-1,2-dihydro-pyridin-3-yl}-3H-benzoimidazole-4-carboxylic acid 4-fluoro-benzylamide] | increased expression of genes spanning hepatocyte function
O=C(NCc1cccc(F)c1)c1cccc2nc(-c3c(NCCc4cccc(Cl)c4)cc[nH]c3=O)[nH]c12 [Example 6, 2-{4-[2-(3-Chloro-phenyl)-ethylamino]-2-oxo-1,2-dihydro-pyridin-3-yl}-3H-benzoimidazole-4-carboxylic acid 3-fluoro-benzylamide] | increased expression of genes spanning hepatocyte function
O=C(NCc1ccccc1F)c1cccc2nc(-c3c(NCCc4cccc(Cl)c4)cc[nH]c3=O)[nH]c12 [Example 7, 2-{4-[2-(3-Chloro-phenyl)-ethylamino]-2-oxo-1,2-dihydro-pyridin-3-yl}-3H-benzoimidazole-4-carboxylic acid 2-fluoro-benzylamide] | increased expression of genes spanning hepatocyte function
